Test in all cases: proximity labelling
The target in experiment [1] is miniTurbo-STIM2-YFP (UniProt Q9P246).
In experiment [2] the target is miniTurbo-STIM1-YFP (UniProt Q13586).
The target is the same in experiment [3]. This is another data set of the same source.
Experiment [4] deals with miniTurbo-STIM2-YFP (UniProt Q9P246). This is another data set of the same source.

By UniProt entry, the sequences of proteins in these tests, tags left out. Residues count along the entry.
UniProt Q9P246, residues 15-746: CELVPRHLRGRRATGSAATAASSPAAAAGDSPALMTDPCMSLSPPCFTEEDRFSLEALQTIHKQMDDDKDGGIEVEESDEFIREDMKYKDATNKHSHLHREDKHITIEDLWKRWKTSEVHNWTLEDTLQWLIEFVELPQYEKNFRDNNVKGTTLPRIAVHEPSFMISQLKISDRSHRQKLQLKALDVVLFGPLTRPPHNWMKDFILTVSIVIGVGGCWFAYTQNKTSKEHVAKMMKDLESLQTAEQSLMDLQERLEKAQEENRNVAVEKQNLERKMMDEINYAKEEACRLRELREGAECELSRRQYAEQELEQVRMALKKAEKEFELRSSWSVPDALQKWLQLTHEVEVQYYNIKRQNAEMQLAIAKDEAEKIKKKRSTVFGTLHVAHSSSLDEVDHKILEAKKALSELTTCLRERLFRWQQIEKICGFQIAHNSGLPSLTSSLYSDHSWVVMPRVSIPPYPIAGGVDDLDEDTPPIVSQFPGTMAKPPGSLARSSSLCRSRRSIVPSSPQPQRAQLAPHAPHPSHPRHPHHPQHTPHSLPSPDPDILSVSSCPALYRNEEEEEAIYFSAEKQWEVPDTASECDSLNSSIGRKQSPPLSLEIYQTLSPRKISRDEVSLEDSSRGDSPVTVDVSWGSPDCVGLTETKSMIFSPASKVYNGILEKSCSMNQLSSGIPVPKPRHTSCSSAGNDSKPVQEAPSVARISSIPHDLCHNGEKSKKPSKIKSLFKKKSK
UniProt Q13586, residues 23-685: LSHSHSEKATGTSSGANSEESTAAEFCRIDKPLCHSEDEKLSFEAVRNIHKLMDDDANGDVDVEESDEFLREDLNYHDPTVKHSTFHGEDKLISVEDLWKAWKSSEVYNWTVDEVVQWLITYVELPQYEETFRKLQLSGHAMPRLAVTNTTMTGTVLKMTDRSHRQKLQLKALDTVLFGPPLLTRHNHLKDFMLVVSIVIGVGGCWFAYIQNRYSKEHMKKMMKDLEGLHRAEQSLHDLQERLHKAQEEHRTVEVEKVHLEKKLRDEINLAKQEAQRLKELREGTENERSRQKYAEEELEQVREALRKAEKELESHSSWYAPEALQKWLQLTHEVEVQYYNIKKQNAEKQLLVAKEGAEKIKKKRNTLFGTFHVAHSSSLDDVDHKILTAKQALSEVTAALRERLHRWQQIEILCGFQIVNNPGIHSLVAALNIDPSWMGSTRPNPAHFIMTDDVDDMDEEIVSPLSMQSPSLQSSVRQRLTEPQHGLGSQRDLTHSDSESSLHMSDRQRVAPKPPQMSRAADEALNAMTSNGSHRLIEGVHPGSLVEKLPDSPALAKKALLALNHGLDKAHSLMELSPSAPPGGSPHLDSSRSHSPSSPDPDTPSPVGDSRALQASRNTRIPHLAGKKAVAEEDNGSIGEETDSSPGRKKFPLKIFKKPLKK
UniProt P27773, residues 25-505: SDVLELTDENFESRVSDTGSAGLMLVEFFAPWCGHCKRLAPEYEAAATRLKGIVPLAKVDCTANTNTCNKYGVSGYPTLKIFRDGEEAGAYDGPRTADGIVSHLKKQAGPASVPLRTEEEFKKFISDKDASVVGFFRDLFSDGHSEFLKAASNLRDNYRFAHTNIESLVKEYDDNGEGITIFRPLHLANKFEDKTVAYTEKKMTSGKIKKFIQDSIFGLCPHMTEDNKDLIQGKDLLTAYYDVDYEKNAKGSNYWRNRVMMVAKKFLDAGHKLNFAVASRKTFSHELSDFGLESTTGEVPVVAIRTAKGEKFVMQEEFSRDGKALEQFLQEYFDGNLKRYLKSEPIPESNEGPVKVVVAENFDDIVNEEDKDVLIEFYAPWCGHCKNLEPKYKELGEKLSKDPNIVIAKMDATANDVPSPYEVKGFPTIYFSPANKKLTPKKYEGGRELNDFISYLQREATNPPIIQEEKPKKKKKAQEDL
UniProt Q91W90, residues 34-417: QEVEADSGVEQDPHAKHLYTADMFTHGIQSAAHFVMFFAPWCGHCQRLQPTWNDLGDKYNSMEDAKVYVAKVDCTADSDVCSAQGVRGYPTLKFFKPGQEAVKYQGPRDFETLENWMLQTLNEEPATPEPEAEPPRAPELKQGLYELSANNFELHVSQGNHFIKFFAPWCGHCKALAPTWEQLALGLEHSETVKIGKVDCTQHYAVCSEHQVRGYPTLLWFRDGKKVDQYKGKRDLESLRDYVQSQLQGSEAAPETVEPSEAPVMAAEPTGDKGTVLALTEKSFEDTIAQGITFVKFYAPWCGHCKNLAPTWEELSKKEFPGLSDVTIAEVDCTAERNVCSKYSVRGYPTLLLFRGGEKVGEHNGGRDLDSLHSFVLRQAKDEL
UniProt P09103, residues 20-509: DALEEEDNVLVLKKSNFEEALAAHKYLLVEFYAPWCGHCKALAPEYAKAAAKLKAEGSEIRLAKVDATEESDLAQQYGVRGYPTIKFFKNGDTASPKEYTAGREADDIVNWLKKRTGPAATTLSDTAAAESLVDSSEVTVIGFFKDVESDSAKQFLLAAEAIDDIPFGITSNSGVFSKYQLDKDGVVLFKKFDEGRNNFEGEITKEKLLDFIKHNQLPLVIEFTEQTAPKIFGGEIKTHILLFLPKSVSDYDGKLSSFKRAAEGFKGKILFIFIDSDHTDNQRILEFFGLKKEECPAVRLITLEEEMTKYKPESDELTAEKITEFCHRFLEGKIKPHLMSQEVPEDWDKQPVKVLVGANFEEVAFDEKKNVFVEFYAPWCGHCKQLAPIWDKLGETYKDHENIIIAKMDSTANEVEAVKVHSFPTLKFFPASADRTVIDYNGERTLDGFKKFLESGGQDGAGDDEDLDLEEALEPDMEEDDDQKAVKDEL
UniProt O08795, residues 15-521: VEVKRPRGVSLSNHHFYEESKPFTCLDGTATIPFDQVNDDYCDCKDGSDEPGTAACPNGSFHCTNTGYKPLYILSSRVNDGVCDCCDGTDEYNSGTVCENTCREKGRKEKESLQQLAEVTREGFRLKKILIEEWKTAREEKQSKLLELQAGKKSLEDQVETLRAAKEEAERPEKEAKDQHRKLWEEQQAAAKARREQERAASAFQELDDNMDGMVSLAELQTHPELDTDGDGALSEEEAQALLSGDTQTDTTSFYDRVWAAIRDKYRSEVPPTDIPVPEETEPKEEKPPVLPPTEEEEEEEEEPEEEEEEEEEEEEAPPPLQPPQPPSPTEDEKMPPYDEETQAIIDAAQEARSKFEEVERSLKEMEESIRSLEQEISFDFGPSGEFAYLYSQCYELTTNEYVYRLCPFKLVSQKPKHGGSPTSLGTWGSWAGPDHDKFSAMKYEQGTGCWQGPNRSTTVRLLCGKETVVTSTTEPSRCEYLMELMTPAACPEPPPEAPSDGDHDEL
UniProt P14314, residues 15-528: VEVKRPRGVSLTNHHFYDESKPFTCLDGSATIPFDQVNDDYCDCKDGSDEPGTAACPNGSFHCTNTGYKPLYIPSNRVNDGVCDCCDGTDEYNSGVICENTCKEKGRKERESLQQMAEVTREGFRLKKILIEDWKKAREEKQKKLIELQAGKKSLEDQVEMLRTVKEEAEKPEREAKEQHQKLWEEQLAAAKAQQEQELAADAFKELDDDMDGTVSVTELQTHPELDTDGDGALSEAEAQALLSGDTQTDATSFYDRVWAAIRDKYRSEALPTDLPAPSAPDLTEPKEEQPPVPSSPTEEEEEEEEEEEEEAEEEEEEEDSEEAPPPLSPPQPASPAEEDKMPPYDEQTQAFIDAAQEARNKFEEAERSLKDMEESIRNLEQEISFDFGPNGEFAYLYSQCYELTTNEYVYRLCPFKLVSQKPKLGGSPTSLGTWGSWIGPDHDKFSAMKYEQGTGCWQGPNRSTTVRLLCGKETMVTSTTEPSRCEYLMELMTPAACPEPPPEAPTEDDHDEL
UniProt Q9NYU2, residues 43-1555: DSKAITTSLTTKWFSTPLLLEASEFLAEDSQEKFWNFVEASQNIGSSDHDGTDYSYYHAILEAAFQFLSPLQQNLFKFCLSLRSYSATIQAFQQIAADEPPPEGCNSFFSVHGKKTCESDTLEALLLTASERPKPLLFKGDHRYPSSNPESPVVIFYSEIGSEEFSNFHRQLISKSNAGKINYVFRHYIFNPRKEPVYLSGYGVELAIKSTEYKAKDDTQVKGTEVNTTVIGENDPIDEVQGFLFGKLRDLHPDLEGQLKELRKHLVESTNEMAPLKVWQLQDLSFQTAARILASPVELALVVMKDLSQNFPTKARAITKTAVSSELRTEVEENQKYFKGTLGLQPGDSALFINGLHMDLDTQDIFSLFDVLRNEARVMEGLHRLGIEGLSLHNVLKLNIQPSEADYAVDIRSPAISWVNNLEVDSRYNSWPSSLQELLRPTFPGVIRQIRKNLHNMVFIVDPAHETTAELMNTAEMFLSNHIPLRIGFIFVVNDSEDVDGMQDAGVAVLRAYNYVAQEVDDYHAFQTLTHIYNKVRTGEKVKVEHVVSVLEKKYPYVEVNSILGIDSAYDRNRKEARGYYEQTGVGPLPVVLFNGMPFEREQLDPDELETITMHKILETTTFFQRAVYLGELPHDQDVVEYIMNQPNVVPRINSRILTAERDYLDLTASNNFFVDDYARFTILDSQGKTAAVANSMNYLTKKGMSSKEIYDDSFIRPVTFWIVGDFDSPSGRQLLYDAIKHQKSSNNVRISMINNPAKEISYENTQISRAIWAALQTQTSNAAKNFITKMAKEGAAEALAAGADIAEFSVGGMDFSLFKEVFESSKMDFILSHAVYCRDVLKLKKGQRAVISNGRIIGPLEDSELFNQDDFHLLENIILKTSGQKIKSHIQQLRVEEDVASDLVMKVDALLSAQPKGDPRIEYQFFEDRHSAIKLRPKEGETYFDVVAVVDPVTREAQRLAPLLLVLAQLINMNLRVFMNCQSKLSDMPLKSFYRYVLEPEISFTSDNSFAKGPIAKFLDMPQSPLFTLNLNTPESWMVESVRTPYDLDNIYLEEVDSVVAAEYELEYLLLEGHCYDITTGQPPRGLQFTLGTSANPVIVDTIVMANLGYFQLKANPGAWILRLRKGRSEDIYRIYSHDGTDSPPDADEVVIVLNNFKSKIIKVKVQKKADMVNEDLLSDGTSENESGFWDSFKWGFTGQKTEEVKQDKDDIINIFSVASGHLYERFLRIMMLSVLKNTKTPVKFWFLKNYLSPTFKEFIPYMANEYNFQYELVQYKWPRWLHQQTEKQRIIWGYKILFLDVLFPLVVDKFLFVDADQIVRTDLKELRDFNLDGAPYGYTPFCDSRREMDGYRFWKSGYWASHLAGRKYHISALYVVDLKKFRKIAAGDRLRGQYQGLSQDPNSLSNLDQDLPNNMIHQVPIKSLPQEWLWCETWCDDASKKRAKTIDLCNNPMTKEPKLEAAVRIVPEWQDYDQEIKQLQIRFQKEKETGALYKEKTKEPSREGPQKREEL
UniProt P07237, residues 18-508: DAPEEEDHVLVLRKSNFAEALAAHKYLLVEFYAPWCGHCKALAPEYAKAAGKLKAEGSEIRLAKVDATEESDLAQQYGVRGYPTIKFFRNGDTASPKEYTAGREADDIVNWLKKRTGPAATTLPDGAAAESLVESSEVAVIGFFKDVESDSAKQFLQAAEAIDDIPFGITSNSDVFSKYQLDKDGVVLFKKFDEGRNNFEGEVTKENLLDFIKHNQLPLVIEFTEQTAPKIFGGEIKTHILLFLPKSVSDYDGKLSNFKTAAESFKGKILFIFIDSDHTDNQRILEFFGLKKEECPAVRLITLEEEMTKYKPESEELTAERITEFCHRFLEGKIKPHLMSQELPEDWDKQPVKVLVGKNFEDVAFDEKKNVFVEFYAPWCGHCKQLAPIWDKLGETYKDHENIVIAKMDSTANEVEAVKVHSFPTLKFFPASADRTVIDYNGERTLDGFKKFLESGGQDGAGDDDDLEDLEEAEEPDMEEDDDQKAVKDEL
UniProt Q8NBS9, residues 33-432: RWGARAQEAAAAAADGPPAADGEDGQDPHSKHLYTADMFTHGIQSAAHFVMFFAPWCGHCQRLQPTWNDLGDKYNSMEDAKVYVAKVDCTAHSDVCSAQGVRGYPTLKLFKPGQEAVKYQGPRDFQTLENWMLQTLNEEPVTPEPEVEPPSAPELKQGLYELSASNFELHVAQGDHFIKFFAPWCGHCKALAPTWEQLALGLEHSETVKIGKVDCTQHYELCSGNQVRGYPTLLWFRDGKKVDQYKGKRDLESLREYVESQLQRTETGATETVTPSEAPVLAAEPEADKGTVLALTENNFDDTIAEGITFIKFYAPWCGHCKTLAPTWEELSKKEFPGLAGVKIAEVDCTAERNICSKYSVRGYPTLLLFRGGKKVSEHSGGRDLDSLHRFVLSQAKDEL

Like-named read-outs stand apart in the source and are kept apart here. These are yes or no findings as the source states them, for the method shown. Binding seen in cells or lysates may run through a third protein. These calls come from enrichment with a bait or labelling near it, and not all partners need be listed. For some of these results: Sequences can lack the tags named with a protein.

Turning to “PDIA3 (also known as ERp57), endogenous in Neuro-2A (from UniProt P27773 25-505) (enzyme)”, in experiment [1], the binding result is reported as “binds”.

“TXNDC5, endogenous in Neuro-2A (from UniProt Q91W90 34-417) (enzyme)”: in experiment [1], the binding result was “binds”.

Consider “P4HB, endogenous in Neuro-2A (from UniProt P09103 20-509) (enzyme)”, for which the binding result in experiment [1] was “binds”.

As to “PRKCSH (the beta-subunit of glucosidase II), endogenous in Neuro-2A (from UniProt O08795 15-521)”, the binding result in experiment [1] is listed as “binds”.

For the molecule “PRKCSH (the beta-subunit of glucosidase II), endogenous in HEK293 (from UniProt P14314 15-528)”, the binding entry in experiment [2] is reported as “binds”.

“UGGT1, endogenous in HEK293 (from UniProt Q9NYU2 43-1555) (enzyme)”: the binding entry in experiment [2] is “binds”.

With “P4HB, endogenous in HEK293 (from UniProt P07237 18-508) (enzyme)”, in experiment [2], the binding entry was “binds”.

On to “TXNDC5, endogenous in HEK293 (from UniProt Q8NBS9 33-432) (enzyme)”, for which the binding entry in experiment [2] is on record as “binds”.

B1: GANAB (the alpha subunit of glucosidase II), endogenous in HEK293 (enzyme, UniProt Q14697 29-944)
chain: ITLAVDRSNFKTCEESSFCKRQRSIRPGLSPYRALLDSLQLGPDSLTVHLIHEVTKVLLVLELQGLQKNMTRFRIDELEPRRPRYRVPDVLVADPPIARLSVSGRDENSVELTMAEGPYKIILTARPFRLDLLEDRSLLLSVNARGLLEFEHQRAPRVSQGSKDPAEGDGAQPEETPRDGDKPEETQGKAEKDEPGAWEETFKTHSDSKPYGPMSVGLDFSLPGMEHVYGIPEHADNLRLKVTEGGEPYRLYNLDVFQYELYNPMALYGSVPVLLAHNPHRDLGIFWLNAAETWVDISSNTAGKTLFGKMMDYLQGSGETPQTDVRWMSETGIIDVFLLLGPSISDVFRQYASLTGTQALPPLFSLGYHQSRWNYRDEADVLEVDQGFDDHNLPCDVIWLDIEHADGKRYFTWDPSRFPQPRTMLERLASKRRKLVAIVDPHIKVDSGYRVHEELRNLGLYVKTRDGSDYEGWCWPGSAGYPDFTNPTMRAWWANMFSYDNYEGSAPNLFVWNDMNEPSVFNGPEVTMLKDAQHYGGWEHRDVHNIYGLYVHMATADGLRQRSGGMERPFVLARAFFAGSQRFGAVWTGDNTAEWDHLKISIPMCLSLGLVGLSFCGADVGGFFKNPEPELLVRWYQMGAYQPFFRAHAHLDTGRREPWLLPSQHNDIIRDALGQRYSLLPFWYTLLYQAHREGIPVMRPLWVQYPQDVTTFNIDDQYLLGDALLVHPVSDSGAHGVQVYLPGQGEVWYDIQSYQKHHGPQTLYLPVTLSSIPVFQRGGTIVPRWMRVRRSSECMKDDPITLFVALSPQGTAQGELFLDDGHTFNYQTRQEFLLRRFSFSGNTLVSSSADPEGHFETPIWIERVVIIGAGKPAAVVLQTKGSPESRLSFQHDPETSVLVLRKPGINVASDWSIHLR
modifications: biotin (added by miniTurbo in the cells; residues not stated)
With B1, in experiment [3], the binding result is “binds”.

B2: GANAB (the alpha subunit of glucosidase II), endogenous in Neuro-2A (enzyme, UniProt Q8BHN3 33-944)
chain: VDRSNFKTCDESSFCKRQRSIRPGLSPYRALLDTLQLGPDALTVHLIHEVTKVLLVLELQGLQKNMTRIRIDELEPRRPRYRVPDVLVADPPTARLSVSGRDDNSVELTVAEGPYKIILTAQPFRLDLLEDRSLLLSVNARGLMAFEHQRAPRVPQESKDPAEGNGAQPEATPGDGDKPEETQEKAEKDEPGAWEETFKTHSDSKPYGPTSVGLDFSLPGMEHVYGIPEHADSLRLKVTEGGEPYRLYNLDVFQYELNNPMALYGSVPVLLAHSFHRDLGIFWLNAAETWVDISSNTAGKTLFGKMLDYLQGSGETPQTDIRWMSESGIIDVFLMLGPSVFDVFRQYASLTGTQALPPLFSLGYHQSRWNYRDEADVLEVDQGFDDHNMPCDVIWLDIEHADGKRYFTWDPTRFPQPLNMLEHLASKRRKLVAIVDPHIKVDSGYRVHEELRNHGLYVKTRDGSDYEGWCWPGSASYPDFTNPRMRAWWSNMFSFDNYEGSAPNLYVWNDMNEPSVFNGPEVTMLKDAVHYGGWEHRDIHNIYGLYVHMATADGLIQRSGGIERPFVLSRAFFSGSQRFGAVWTGDNTAEWDHLKISIPMCLSLALVGLSFCGADVGGFFKNPEPELLVRWYQMGAYQPFFRAHAHLDTGRREPWLLASQYQDAIRDALFQRYSLLPFWYTLFYQAHKEGFPVMRPLWVQYPEDMSTFSIEDQFMLGDALLIHPVSDAGAHGVQVYLPGQEEVWYDIQSYQKHHGPQTLYLPVTLSSIPVFQRGGTIVPRWMRVRRSSDCMKDDPITLFVALSPQGTAQGELFLDDGHTFNYQTRHEFLLRRFSFSGSTLVSSSADPKGHLETPIWIERVVIMGAGKPAAVVLQTKGSPESRLSFQHDPETSVLILRKPGVSVASDWSIHLR
modifications: biotin (added by miniTurbo in the cells; residues not stated)
As for B2, the binding entry in experiment [4] is “binds”.

(Values after publication doi:10.1101/2024.04.20.590316.)
